{"source": "PubChem BioAssay AID624297", "about": "(National Center for Advancing Translational Sciences (NCATS), 2012)", "note": "Screen size: about 340,000 compounds; about 6,200 (1.8%) were called active. The inconclusive results got no clear call from the source; some entries with a clear call stand among them for comparison. Calls come from the whole dose curve; as a rule, active = well fitted activation curve with a large enough effect; inconclusive = small, poorly fitted or top-dose-only effect; inactive = no such curve, though single readings can be large or run the other way. Where the call is inconclusive, the potency comes from a doubtful curve fit. Potency is the fitted concentration of half-maximal effect.", "data": [{"test": "A quantitative high throughput screen for small molecules that induce DNA re-replication in SW480 colon adenocarcinoma cells; note: nearly all actives have a fitted effect of over 55% in size.", "details": "Hoechst DNA content imaging, 48 h; series mostly up to 46.1 µM", "method_in_brief": "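Cells (250 per well) received 23 nL compound or DMSO by pin tool and were kept 48 hr at 37 C, 5% CO2. Nuclei were then stained with Hoechst for 40 min and scanned for DNA content.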", "values": [{"smiles": "CC(=O)Nc1ccc(-n2nnnc2SCC(=O)Nc2cccc(NC(=O)c3ccco3)c2)cc1", "Potency": "inactive"}, {"smiles": "O=C(Nc1cccc(Cn2cccn2)c1)c1cc2c(s1)CCCC2", "Potency": "inconclusive: 12.6 µM [activator, partial curve, poor fit]"}, {"smiles": "COc1ccc(/C(C)=N/NC(=O)c2nnn(-c3nonc3N)c2-c2cccs2)cc1", "Potency": "inconclusive: 29.1 µM [activator, single point]"}, {"smiles": "O=c1cccccc1NN=C1CCCCC1", "Potency": "inactive"}, {"smiles": "COCCNC(=O)C(c1cccs1)N(Cc1ccccc1)C(=O)Cn1nnc2ccccc21", "note": "(stereo unspecified)", "Potency": "inconclusive: 4.11 µM [activator, single point]"}, {"smiles": "Cc1ccccc1S(=O)(=O)N1C[C@H]2CON(C)[C@H]2C[C@H]1c1cccc(N2CCOCC2)c1", "Potency": "inactive"}, {"smiles": "Oc1ccc(C[C@H]2CNC(=S)N2CC2CCCN2C[C@H](Cc2ccc(O)cc2)N2C[C@H](Cc3ccc(O)cc3)N(CC3CCCCCC3)C2=S)cc1", "note": "(stereo partly specified)", "Potency": "inconclusive: 29.1 µM [activator, single point]"}, {"smiles": "CCOc1ccc2nc(SCC(=O)c3ccc(C)s3)sc2c1", "Potency": "inactive"}, {"smiles": "CCN(CC(O)Cn1c2ccccc2c2ccccc21)S(=O)(=O)c1ccc(F)cc1", "note": "(stereo unspecified)", "Potency": "inconclusive: 20.6 µM [activator, single point]"}, {"smiles": "Cc1ccc(C2=NOC3(CC(=O)N(c4ccccc4)C3=O)C2)cc1", "note": "(stereo unspecified)", "Potency": "inconclusive: 18.4 µM [activator, single point]"}, {"smiles": "CC1=C(C(=O)OC(C)C)C(C)NC(=O)N1", "note": "(stereo unspecified)", "Potency": "inactive"}, {"smiles": "CC(C(=O)Nc1ccc(Cl)cc1)c1ncc(C(F)(F)F)cc1Cl", "note": "(stereo unspecified)", "Potency": "inconclusive: 18.4 µM [activator, single point]"}, {"smiles": "CCOc1ccc(S(=O)(=O)N2CCC(C(=O)Nc3cccc(NC(C)=O)c3)CC2)cc1", "Potency": "inconclusive: 22.4 µM [activator, partial curve, poor fit]"}, {"smiles": "CCCNC(=O)Nc1cc(OCC)c(N2CCOCC2)cc1OCC", "Potency": "inactive"}, {"smiles": "COc1ccc(Cn2c(N)c(C#N)c3nc4ccccc4nc32)cc1", "Potency": "active: 9.2 µM"}, {"smiles": "COc1cccc2c1[C@@H]1CN(CCCCn3c(=O)[nH]c4c(sc5ncc(-c6ccccc6)nc54)c3=O)C[C@@H]1CO2", "Potency": "inactive"}, {"smiles": "O=C(N/N=C/c1ccc(Cl)cc1)c1ccc2c(c1)OCO2", "Potency": "inconclusive: 23.1 µM [activator, single point]"}, {"smiles": "COC(=O)c1ccc(NC(=O)Nc2ccc([N+](=O)[O-])cc2)cc1", "Potency": "inactive"}, {"smiles": "O=C(CCNC(=O)c1ccc(Cl)cc1)Nc1cccc(S(=O)(=O)N2CCCCCC2)c1", "Potency": "inactive"}, {"smiles": "COc1ccc(N2C(=S)NC3CS(=O)(=O)CC32)cc1", "note": "(stereo unspecified)", "Potency": "inconclusive: 5.8 µM [activator, full curve, poor fit]"}, {"smiles": "O=c1c2ccccc2nc(/C=C/c2ccc(O)cc2)n1CCc1ccccc1", "Potency": "inconclusive: 18.4 µM [activator, partial curve, poor fit]"}, {"smiles": "CCOC(=O)c1ccc(N[C@@H]2CCN3C(=O)c4ccccc4[C@@H]3C[C@H]2O)cc1", "Potency": "inconclusive: 32.6 µM [activator, single point]"}, {"smiles": "Cc1c(CCCl)c(Cl)n2c(nc3ccccc32)c1C#N", "Potency": "inconclusive: 4.61 µM [activator, partial curve, poor fit]"}, {"smiles": "c1ccc(-c2nnnn2-c2ccccc2)cc1", "Potency": "inconclusive: 0.0046 µM [activator, full curve, poor fit]"}, {"smiles": "CCCNC(=O)c1csc2c1CCCCC2", "Potency": "inactive"}, {"smiles": "CC[C@@]12C(=O)N(c3ccc(OC)cc3)C(=O)N1[C@H](c1ccc(Cl)cc1)[C@@H]1C(=O)N(C3CCCCC3)C(=O)[C@@H]12", "Potency": "inactive"}, {"smiles": "O=C(CN(Cc1ccccc1)S(=O)(=O)c1ccc2c(c1)OCCO2)Nc1ccc2c(c1)OCCO2", "Potency": "inactive"}, {"smiles": "Cc1c(Br)c([N+](=O)[O-])nn1C(C)C(=O)NCc1cccs1", "note": "(stereo unspecified)", "Potency": "inconclusive: 0.0366 µM [activator, full curve, poor fit]"}, {"smiles": "CCOc1ccccc1N(C(=O)c1snc(C(N)=O)c1N)C(C(=O)NCc1ccccc1)c1ccc(O)cc1", "note": "(stereo unspecified)", "Potency": "inconclusive: 23.1 µM [activator, single point]"}, {"smiles": "C/C(=N\\Nc1cccc2cccnc12)c1ccccn1", "Potency": "inconclusive: 10.3 µM [activator, partial curve]"}, {"smiles": "Cc1nn(-c2ccccc2)c(Cl)c1C1C(C#N)=C(N)OC2=C1C(=O)CC(C)(C)C2", "note": "(stereo unspecified)", "Potency": "inconclusive: 29.1 µM [activator, single point]"}, {"smiles": "O=c1c2ccccc2nnn1CSc1nc2ccccc2[nH]1", "Potency": "inactive"}, {"smiles": "CC(C)Cn1c(N)c(C(=O)COC(=O)c2ccc(O)cc2O)c(=O)n(C)c1=O", "Potency": "inconclusive: 6.51 µM [activator, single point]"}, {"smiles": "CCOC(=O)c1nc(Nc2ccc(C)cc2)c2ccccc2n1", "Potency": "inconclusive: 4.61 µM [activator, single point]"}, {"smiles": "CCn1ncc(C2C(C(=O)Nc3ccc(C)cn3)=C(C)NC3=C2C(=O)CCC3)c1C", "note": "(stereo unspecified)", "Potency": "inactive"}, {"smiles": "O=C(C1CC1)N1CCc2cc(S(=O)(=O)NCc3ccccc3)ccc21", "Potency": "inconclusive: 20.6 µM [activator, single point]"}, {"smiles": "CCN1/C(=C/C(=O)c2ccco2)Sc2ccccc21", "Potency": "inconclusive: 18.4 µM [activator, partial curve]"}, {"smiles": "CC(C)OC(=O)c1c(NC(=O)CCC(=O)O)sc2c1CCCCC2", "Potency": "inconclusive: 29.1 µM [activator, partial curve, poor fit]"}, {"smiles": "CCCNC(=O)c1ccc(N2CCC3(CC2)CC(c2ccccc2)=NO3)c(NC(=O)c2ccco2)c1", "Potency": "inactive"}, {"smiles": "c1ccc(-c2oc3ncnc(NCCN4CCOCC4)c3c2-c2ccccc2)cc1", "Potency": "inactive"}, {"smiles": "COc1ccc2c(-c3ccccc3)cc3nnnn3c2c1", "Potency": "inactive"}, {"smiles": "Cc1cccc(NC(=O)Cn2cc(C=O)c3ccccc32)c1", "Potency": "inconclusive: 29.1 µM [activator, single point]"}, {"smiles": "COc1ccc(NC(=O)C2CCCN(S(=O)(=O)c3c(C)n[nH]c3C)C2)cc1OC", "note": "(stereo unspecified)", "Potency": "inactive"}, {"smiles": "O=C(CCCOc1ccc(Cl)cc1Cl)N1CCc2ccccc2C1", "Potency": "active: 2.59 µM"}, {"smiles": "COc1ccc(C[C@H]2CN3C(=NC[C@@H]3C(C)C)N2CCNC(=O)c2ccc(C)c(Br)c2)cc1", "Potency": "inactive"}, {"smiles": "Cc1ccc([N+](=O)[O-])cc1-c1ccc(/C=C(\\C#N)c2[nH]nc(N)c2C#N)o1", "Potency": "inconclusive: 32.6 µM [activator, partial curve, poor fit]"}, {"smiles": "CCOC(=O)C1CCN(C(=O)c2cc3c(=O)n4ccccc4nc3n2C)CC1", "Potency": "inconclusive: 18.4 µM [activator, single point]"}, {"smiles": "O/N=C/c1ccc(OCc2ccccc2)c(Br)c1", "Potency": "inconclusive: 18.4 µM [activator, single point]"}, {"smiles": "CC(=O)c1c(N2CCN(c3ccc(F)cc3)CC2)nc(=S)n(Cc2ccccc2)c1C", "Potency": "inconclusive: 0.651 µM [activator, partial curve, poor fit]"}, {"smiles": "CCC(CC)C(=O)Nc1ccc(C(=O)Nc2cc(C)on2)cc1", "Potency": "inconclusive: 6.51 µM [activator, single point]"}, {"smiles": "Nn1cnnc1N/N=C/c1cccc(Cl)c1Cl", "Potency": "inconclusive: 29.1 µM [activator, single point]"}, {"smiles": "O=C(COC(=O)CC(c1ccccc1)c1ccccc1)NCc1ccc(Cl)cc1", "Potency": "inconclusive: 23.1 µM [activator, single point]"}, {"smiles": "O=C(OC(c1ccccc1)c1nccc2ccccc12)c1cc([N+](=O)[O-])cc([N+](=O)[O-])c1", "note": "(stereo unspecified)", "Potency": "inconclusive: 29.1 µM [activator, single point]"}, {"smiles": "O=C(CS(=O)(=O)c1ccc(F)cc1)NCCS(=O)(=O)c1ccccc1", "Potency": "inconclusive: 29.1 µM [activator, single point]"}, {"smiles": "CC(C)CNC(=O)c1ccc(C2SCC(=O)N2Cc2ccccc2)cc1", "note": "(stereo unspecified)", "Potency": "inactive"}, {"smiles": "Cc1nc([N+](=O)[O-])c(Br)n1CC(=O)c1cccc([N+](=O)[O-])c1", "Potency": "inconclusive: 23.1 µM [activator, single point]"}, {"smiles": "O=C(NCCNC(=O)c1ccccc1Br)c1cccnc1", "Potency": "inconclusive: 20.6 µM [activator, single point]"}, {"smiles": "COc1ccc(N2CC(C(=O)N/N=C/c3ccc(C)cc3)CC2=O)cc1", "note": "(stereo unspecified)", "Potency": "active: 5.17 µM"}, {"smiles": "NC(=O)c1cnn(-c2ccc3ccccc3c2)c1N", "Potency": "inactive"}, {"smiles": "Cc1cc(C)cc(NC(=S)N2CCN(c3ncccn3)CC2)c1", "Potency": "inconclusive: 0.651 µM [activator, partial curve, poor fit]"}, {"smiles": "CC(C)CN(C(=O)C1CSC2(C)CCC(=O)N12)c1c(N)n(Cc2ccccc2)c(=O)[nH]c1=O", "note": "(stereo unspecified)", "Potency": "inconclusive: 3.66 µM [activator, single point]"}, {"smiles": "CC1CCCCC1NC(=O)COC(=O)c1cccn1C", "note": "(stereo unspecified)", "Potency": "inactive"}, {"smiles": "CNC(=S)N/N=C(\\C)c1ccc(N2CCOCC2)cc1", "Potency": "inactive"}, {"smiles": "O=C1NC(c2cccs2)Nc2ccccc21", "note": "(stereo unspecified)", "Potency": "inactive"}, {"smiles": "COCc1nnc(NC(=O)c2ccc(S(=O)(=O)N(CC(C)C)CC(C)C)cc2)o1", "Potency": "inconclusive: 29.1 µM [activator, single point]"}, {"smiles": "O=C(O)c1cccc(NC2=C(N3CCOCC3)C(=O)c3ccccc3C2=O)c1", "Potency": "inconclusive: 23.1 µM [activator, single point]"}, {"smiles": "N#CC1=C(N)Oc2cc(N)ccc2C1c1ccsc1", "note": "(stereo unspecified)", "Potency": "inactive"}, {"smiles": "CCOc1ccc(S(=O)(=O)N2CCN(C(=O)CCOc3ccccc3C)CC2)cc1", "Potency": "inconclusive: 10.3 µM [activator, partial curve]"}, {"smiles": "COc1ccccc1NC(=O)CSc1nnc(Cc2cccs2)n1C", "Potency": "inactive"}, {"smiles": "CCc1nnc(NC(=O)c2cc(-c3ccccc3)nn2-c2ccccc2)s1", "Potency": "inactive"}, {"smiles": "CCOC(=O)COc1ccc(S(=O)(=O)NCc2cccnc2)cc1", "Potency": "inconclusive: 23.1 µM [activator, single point]"}]}]}
